Data from PMC12040169 (PLOS Biology, 2025).
Some of the results follow.

System: T1, CTL2-GFP (C. trachomatis L2/434/Bu, GFP-expressing)
T1 construct: L2/434/Bu, GFP-expressing
Parameters: species or system HeLa; Intracellular C. trachomatis growth in HeLa cells, bulk GFP fluorescence relative to DMSO
Settings: bulk GFP, single well; 28.5 h, 10 µM; inhibitor

| SMILES | % of control remaining [%] |
| --- | --- |
| CC(NC(=O)Cn1ccnc1-c1ccccc1)c1ccccn1 (stereo not drawn) [CBK281885] | 127.089 |
| O=C1N=C2C=CC=CN2C(=O)C1Cc1ccccc1 (stereo not drawn) [CBK287874] | 99.5988 |
| CCCC/C=C/c1cnc2[nH]c(=O)n([C@H](CO)C(C)C)c2n1 [CBK064970] | 148.634 |
| CCCC/C=C/c1cnc2[nH]c(=O)n(C3CCOCC3)c2n1 [CBK064253] | 113.439 |
| O=C(NCc1cccs1)NC1CCCc2c1cnn2CCO (stereo not drawn) [CBK305658] | 125.998 |
| NS(=O)(=O)c1ccc(CCNC(=O)/C=C/c2ccccc2Cl)cc1 [CBK264379] | 138.128 |
| O=C(OCc1ccccc1)Sc1nnc(-c2ccc([N+](=O)[O-])cc2)o1 [CBK264504] | 100 |
| COc1ccc(NC(=O)CC(C(=O)O)N2CCCCC2)cc1 (stereo not drawn) [CBK267115] | 173.122 |
| CC(=O)c1ccc(-c2nccnc2N2CCCC2CO)s1 (stereo not drawn) [CBK037483] | 110.276 |
| Cn1c(C(=O)Nc2ccc(Cn3cncn3)cc2)cc2cc(F)ccc21 [CBK281584] | 112.048 |
| O=C(NCCn1nc(-c2cccs2)oc1=O)C1CCCC1 [CBK282345] | 99.9973 |
| CCNC(=O)Nc1ccc2ccc(-c3ccc(SC)cc3)nc2n1 [CBK070656] | 84.8119 |
| CCNC(=O)Nc1ccc(-c2ccc(S(C)(=O)=O)cc2)c2ccccc12 [CBK083728] | 94.9113 |
| N#C/C(=C\c1cccn1-c1ccc(S(N)(=O)=O)cc1)c1nc2ccccc2[nH]1 [CBK266167] | 101.78 |
| COc1ccc(F)cc1-c1cccc(CC2(C(=O)NCCc3ccccc3)CCOCC2)c1 [CBK285562] | 122.453 |
| NC(=O)c1c(NC(=O)c2ccc3ncsc3c2)sc2c1CCCC2 [CBK287369] | 113.86 |
| CCc1nccn1CC(=O)N(C)C1CCCN(Cc2ccccc2F)C1 (stereo not drawn) [CBK306928] | 129.036 |
| COc1ccc(C(=O)N2CCC3(CCCN(C(=O)c4ccc5occc5c4)C3)C2)cc1OC (stereo not drawn) [CBK131665] | 105.368 |
| Cc1ccc(/C=C/C(=O)O)cc1S(=O)(=O)N1CCCc2ccccc21 [CBK264425] | 100 |
| O=[N+]([O-])c1ccccc1S(=O)(=O)N1CCN(c2ccnc3cc(Cl)ccc23)CC1 [CBK267271] | 107.828 |
| Cc1cc(C(=O)NC(Cn2ccnc2)c2ccccc2)cc(=O)[nH]1 (stereo not drawn) [CBK306818] | 114.464 |
| COc1ccccc1NC(=O)N1CCC2(CC1)NC(=O)Cc1cc3ccccc3cc12 [CBK047284] | 100.047 |
| CN1CCN(S(=O)(=O)c2ccc3c(c2)oc(=O)c2cc(S(=O)(=O)N4CCN(C)CC4)ccc23)CC1 [CBK267206] | 156.098 |
| Cc1nn(C)c(C)c1CCC(=O)OCc1cc(=O)n2ccccc2n1 [CBK305690] | 115.843 |
| CC(C)(Oc1ccc(Cl)cc1)C(=O)NCCc1ccc(S(N)(=O)=O)cc1 [CBK265628] | 102.507 |
| O=C(NCCc1c[nH]c2ccccc12)C(=O)Nc1ccncc1 [CBK287754] | 106.876 |

| SMILES | % of control remaining [%] |
| --- | --- |
| O=C(O)c1cccc(NC(=S)NC(=O)c2ccc(-c3ccc(Br)cc3)o2)c1 [CBK265014] | 91.7898 |
| Nc1nc2ccccc2n1/N=C/c1ccc([N+](=O)[O-])cc1 [CBK262239] | 100 |
| Cc1csc(Sc2cc(N3CCCC3)ncn2)n1 [CBK093745] | 92.4128 |
| NC(=O)C1CCN(C(=O)Cc2csc(COc3ccc(Cl)cc3)n2)CC1 [CBK304519] | 119.737 |
| CC(=O)c1cccc(NC(=O)Cn2nc(C)ccc2=O)c1 [CBK304653] | 140.475 |
| Oc1c(CN2CCN(Cc3ccc4cccnc4c3O)CC2)ccc2cccnc12 [CBK261994] | 87.5927 |
| Cc1ccc2c(CC(=O)N(C)CCN(C)C)c(C)[nH]c2c1C [CBK282157] | 135.648 |
| O=C(N/N=C/c1ccc(O)cc1)c1c[nH]c2ccccc12 [CBK262193] | 136.448 |
| COc1cccc(/C=C2\SC(=S)N(CC(=O)NNC(=O)c3ccccc3O)C2=O)c1 [CBK262202] | 119.456 |
| COc1ccc(C(=O)Nc2ccc(CC(=O)O)cc2)cc1 [CBK269736] | 114.487 |
| Cc1cc2nnc(SCC(=O)Nc3ccc4c(c3)OCO4)n2c2ccccc12 [CBK265926] | 104.734 |
| Nc1cc2ccccc2c(-c2ccncc2)n1 [CBK085708] | 146.563 |
| Cc1cnc(CNC(=O)N(CCC#N)C2CCCCC2)cn1 [CBK156352] | 124.957 |
| O=C1Nc2c(cnn2-c2ccc(F)cc2)C2=NCCN12 [CBK284351] | 111.075 |
| CC(=O)Nc1ccc(CNc2ccc(Cl)cc2)cc1 [CBK012799] | 106.273 |
| Cc1cc(NS(=O)(=O)c2cccc3nonc23)n(C)n1 [CBK067247] | 87.4498 |
| CC(NC(=O)/C=C\C(=O)O)c1ccc2c(c1)OCO2 (stereo not drawn) [CBK286996] | 120.393 |
| OCCOc1ccnc2ccccc12 [CBK113395] | 110.825 |
| COc1cc(OC)c2c(c1)OCC1CON(C)C21 (stereo not drawn) [CBK011446] | 128.426 |
| CC(=O)N1CC[C@H]2NC(=O)CNC(=O)C3(CCCC[C@H]2C1)CCN(C(=O)c1n[nH]c2c1CCC2)CC3 [CBK292012] | 129.732 |
| O=C(NC(=S)Nc1ccc(N2CCN(Cc3ccccc3Cl)CC2)cc1)c1ccco1 [CBK266066] | 125.778 |
| Cc1cc(C2CCCCCN2Cc2cc(Cl)ccc2O)on1 (stereo not drawn) [CBK281948] | 110.67 |
| c1ccc2c(c1)OCC(COc1ccnc(N3CCCN(CCN4CCOCC4)CC3)n1)O2 (stereo not drawn) [CBK083976] | 101.97 |
| Cc1ccc(S(=O)(=O)Nc2ccc(C(=O)O)cc2)cc1[N+](=O)[O-] [CBK034055] | 145.399 |
| COCc1ccc(-c2nccnc2NS(C)(=O)=O)cc1 [CBK049631] | 206.414 |

In another format: 4 of the compounds above
SMILES | % of control remaining [%]
O=C(O)c1cccc(NC(=S)NC(=O)c2ccc(-c3ccc(Br)cc3)o2)c1 [CBK265014] | 91.7898
CC(=O)c1cccc(NC(=O)Cn2nc(C)ccc2=O)c1 [CBK304653] | 140.475
Cc1cc2nnc(SCC(=O)Nc3ccc4c(c3)OCO4)n2c2ccccc12 [CBK265926] | 104.734
Nc1cc2ccccc2c(-c2ccncc2)n1 [CBK085708] | 146.563
